The test addresses T1, full-length Flag-tagged human OMA1 (human) (UniProt Q96E52).
T1 sequence: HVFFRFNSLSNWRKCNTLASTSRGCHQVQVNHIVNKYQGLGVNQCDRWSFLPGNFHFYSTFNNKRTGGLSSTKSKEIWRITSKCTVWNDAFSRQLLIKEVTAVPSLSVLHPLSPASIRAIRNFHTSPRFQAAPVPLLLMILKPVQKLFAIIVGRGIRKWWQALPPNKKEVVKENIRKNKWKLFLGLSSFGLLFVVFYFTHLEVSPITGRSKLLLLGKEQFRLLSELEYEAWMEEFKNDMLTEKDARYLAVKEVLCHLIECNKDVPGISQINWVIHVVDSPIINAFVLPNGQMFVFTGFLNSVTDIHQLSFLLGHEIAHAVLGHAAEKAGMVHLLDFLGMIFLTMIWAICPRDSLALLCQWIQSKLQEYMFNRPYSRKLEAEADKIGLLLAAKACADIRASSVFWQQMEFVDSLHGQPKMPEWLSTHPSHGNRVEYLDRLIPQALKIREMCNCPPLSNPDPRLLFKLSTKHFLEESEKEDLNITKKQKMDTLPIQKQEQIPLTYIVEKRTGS
The test can be described thus: co-IP; HEK293T cells transfected with 3 ug Flag-OMA1 plasmid for 48 h; lysis buffer 50 mM Tris-HCl pH 7.4, 150 mM NaCl, 0.1% NP-40; IP with monoclonal anti-flag M2 antibody or normal mouse IgG at 4 °C overnight, protein A/G beads; immunoblot with anti-GSK3 and Flag antibodies.

These are yes or no findings as the source states them, for the method shown. Binding seen in cells or lysates may run through a third protein. A result given as binding can be weak or reduced; the word gives no strength. Tags and fused reporters may be left off the sequences shown.

Turning to “endogenous GSK3 (human (endogenous in HEK293T)) (enzyme)”, the binding result is on record as “binds”.

The values above are taken from publication PMC5945599.
